This is an account of results in publication PMC3741296.

The chains behind the UniProt entries cited, without tags or fusion partners. Where a name states a change or a piece, a line headed by the entry shows the natural chain unless it says otherwise.
UniProt P35613: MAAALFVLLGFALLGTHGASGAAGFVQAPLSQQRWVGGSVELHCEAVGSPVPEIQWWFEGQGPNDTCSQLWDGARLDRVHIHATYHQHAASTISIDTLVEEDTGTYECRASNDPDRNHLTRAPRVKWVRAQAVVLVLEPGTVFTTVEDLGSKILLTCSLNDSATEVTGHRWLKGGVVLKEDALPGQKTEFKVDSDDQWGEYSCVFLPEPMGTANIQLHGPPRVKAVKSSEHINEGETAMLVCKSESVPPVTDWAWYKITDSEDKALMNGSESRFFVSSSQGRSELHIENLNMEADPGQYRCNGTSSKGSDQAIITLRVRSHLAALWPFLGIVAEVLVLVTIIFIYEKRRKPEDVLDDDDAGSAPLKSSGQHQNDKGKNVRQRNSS
UniProt P07355: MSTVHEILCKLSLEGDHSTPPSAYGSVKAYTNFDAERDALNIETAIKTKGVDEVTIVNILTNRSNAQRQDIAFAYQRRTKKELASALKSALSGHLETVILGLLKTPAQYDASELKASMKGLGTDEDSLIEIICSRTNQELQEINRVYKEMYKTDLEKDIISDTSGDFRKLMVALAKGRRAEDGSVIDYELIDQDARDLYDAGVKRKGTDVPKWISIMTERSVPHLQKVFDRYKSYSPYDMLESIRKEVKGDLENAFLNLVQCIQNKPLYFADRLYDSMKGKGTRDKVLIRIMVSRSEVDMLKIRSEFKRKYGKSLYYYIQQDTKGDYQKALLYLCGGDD

Assay [1] concerns the target CD147 (human (endogenous in SMMC-7721 and FHCC-98)) (UniProt P35613). As to the kind of experiment: co-IP; total cellular membrane proteins (TMP) from SMMC-7721 and FHCC-98 cells on coupling gel pre-bound with 200 ug anti-ANXA2 mAb or anti-human CD147 mAb (ProFound Mammalian Co-Immunoprecipitation Kit); four washes; eluate blotted with anti-ANXA2 and anti-CD147 mAb; mouse IgG (anti-JEV mAb) as negative control.

The target of assay [2] is Annexin A2 (human (endogenous in SMMC-7721 and FHCC-98)) (UniProt P07355). The description is as above.

No constants are given. Whether binding was seen depends on the method and setting. Binding seen in cells or lysates may run through a third protein. Binding can be weak; no strength is given.

Regarding Annexin A2 (from UniProt P07355 1-339), the binding entry in assay [1] is on record as “binds”.
Regarding CD147 (from UniProt P35613-2), the binding result in assay [2] is on record as “binds”.
